# Data published in the RNAGym collection of RNA variant scans (doi:10.1126/science.aae0568).
# Variants at the floor of the assay are shown more often than the library holds them.
# B1: tRNA (parent)
# chain: GUUCCGUUGGCGUAAUGGUAACGCGUCUCCCUCCUAAGGAGAAGACUGCGGGUUCGAGUCCCGUACGGAACG
# Variants of: B1
# Assay: yeast fitness relative to wild type (ratio to wild type); higher = fitter; tRNA-Arg(CCU), competitive growth, 37 C, YPD
# In short: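 Variants of the tRNA-Arg(CCU) gene, chemically synthesised with a 3% per-site mutation rate at 69 sites, were placed at the native genomic locus in Saccharomyces cerevisiae. The pooled strains were competed in YPD at 37°C for 24 hours in six parallel replicates. Gene amplicons from the start population and from each end population were read by 100-nucleotide paired-end sequencing. Darwinian fitness relative to wild type came from changes in genotype frequencies; genotypes needed ≥ 100 starting reads, and estimates < 0.5 were set to 0.5.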
row,Variant,yeast fitness
1,C4G C11G A70G,≤ 0.5
2,C4G C11G C49U C60U,≤ 0.5
3,C4G C11G G51C,≤ 0.5
4,C4G C11G U13A U59G C61G,≤ 0.5
5,C4G C11U A69U,0.539
6,C4G C11U C29G G68A,≤ 0.5
7,C4G C11U C62A C66U,≤ 0.5
8,C4G C11U U19A U32A A37U U64A,≤ 0.5
9,C4G C11U U35C A36G G63A,≤ 0.5
10,C4G C22G A37G,≤ 0.5
11,C4G C22G C24U G41A A57U C66A,≤ 0.5
12,C4G C22G C33U A36C A40U A57C U64A,≤ 0.5
13,C4G C22G C33U A36C A40U C62A,≤ 0.5
14,C4G C24A C46U C60A,0.521
15,C4G C24U C33G C62U A65U C66U A69C,≤ 0.5
16,C4G C27A C46U,0.539
17,C4G C27G A65G A69G,≤ 0.5
18,C4G C29G G41A,≤ 0.5
19,C4G C29U C30G G39C C60A,≤ 0.5
20,C4G C30A C66U A69C,≤ 0.5
21,C4G C30U A42U G50C G63C,≤ 0.5
22,C4G C31A A37G C55U A57G,≤ 0.5
23,C4G C31A C33G G51C G52A C60G,≤ 0.5
24,C4G C31U C55A,≤ 0.5

row,Variant,yeast fitness
1,C4G C49A A69C,≤ 0.5
2,C4G C49A C66U,≤ 0.5
3,C4G C49G G58C,≤ 0.5
4,C4G C55G U64C C66A,≤ 0.5
5,C4G G6A C11U C29A G63A,≤ 0.5
6,C4G G6A C24G G39C,≤ 0.5
7,C4G G9A A15U C33A G52C,≤ 0.5
8,C4G G9A C22U C46G G56C,≤ 0.5
9,C4G G9A C34U U64G,≤ 0.5
10,C4G G9A U32C C33U C49G,≤ 0.5
11,C4G G10A C30G A43G G56C,≤ 0.5
12,C4G G12C C29U G38C,≤ 0.5
13,C4G G17A C22A G38A,0.638
14,C4G G17A C34A A43G G63A,≤ 0.5
15,C4G G17C A20U A37C,0.717
16,C4G G17C A37U A69U,≤ 0.5
17,C4G G17C G39C G50A U59G C61A C62U,≤ 0.5
18,C4G G18A C30U A69U,≤ 0.5
19,C4G G18C C24G C29G A36C C46A C55U,≤ 0.5
20,C4G G18C C55U G67C,≤ 0.5
21,C4G G23A A40C U53C,≤ 0.5
22,C4G G23C A69U,≤ 0.5
23,C4G G23C C24G A70G,≤ 0.5
24,C4G G23C C29U C31G,≤ 0.5

row,Variant,yeast fitness
1,C4G G23C G25A,≤ 0.5
2,C4G G38C C60U U64A,≤ 0.5
3,C4G G39C A45G A57C A65U C66U,0.796
4,C4G G41C U47A A57G,≤ 0.5
5,C4G G41U C61A C66U,≤ 0.5
6,C4G G51C U54A A70U,≤ 0.5
7,C4G G56A C62G,≤ 0.5
8,C4G U7C C29A U35A G67C,≤ 0.5
9,C4G U7G G12C A20U A70U,≤ 0.5
10,C4G U8C C31G C33G G58C C60U,≤ 0.5
11,C4G U8C U59G,≤ 0.5
12,C4G U8G C31A A40C,≤ 0.5
13,C4G U8G G9A C11U C49A,≤ 0.5
14,C4G U16C A36U U54G,≤ 0.5
15,C4G U16C G56A G67C,≤ 0.5
16,C4G U19A A43C,≤ 0.5
17,C4G U19C C62U G63A,0.545
18,C4G U28A C29G G51A G56A G67C,≤ 0.5
19,C4G U32G C55U C66G,≤ 0.5
20,C4U A14C A15U G52C C55U,≤ 0.5
21,C4U A14C A15U U64G C66A,≤ 0.5
22,C4U A14G A15C A37G C61U,≤ 0.5
23,C4U A14G A15G C33A U59C C60U,≤ 0.5
24,C4U A14G A40U,0.593

row,Variant,yeast fitness
1,C4U A14G C24G C31U C55A,≤ 0.5
2,C4U A14G C34A,≤ 0.5
3,C4U A14G G17C C49A,≤ 0.5
4,C4U A14U,0.611
5,C4U A14U A36U G56A,≤ 0.5
6,C4U A15C A40G U53C,≤ 0.5
7,C4U A15C A70U,0.573
8,C4U A15C C30G G52A A65C,≤ 0.5
9,C4U A15C G23C A65G,≤ 0.5
10,C4U A20C C30A C33U C34U C49A,≤ 0.5
11,C4U A20G G56A A65G,≤ 0.5
12,C4U A20G U28C C31U G50C C55U C60G G63A C66U,0.508
13,C4U A21C C27G U53A,≤ 0.5
14,C4U A21C C30A C31G U32C G41C,≤ 0.5
15,C4U A21G C46A G68C,0.544
16,C4U A21U U54A A70G,≤ 0.5
17,C4U A37C,0.884
18,C4U A37C G38A,0.613
19,C4U A40U G48C U53G,≤ 0.5
20,C4U A42C A45G C66A,≤ 0.5
21,C4U A45U C46U U53C,≤ 0.5
22,C4U C5A A36U G39C C60A G68A,≤ 0.5
23,C4U C5A U13A C31U C34U A70C,≤ 0.5
24,C4U C5G A14C G38C G67C,≤ 0.5

row,Variant,yeast fitness
1,C4U C5G C29U G63A A65G,0.535
2,C4U C5G C33U,≤ 0.5
3,C4U C5G C46G G52C C62G C66U,≤ 0.5
4,C4U C5U A14C A70G,≤ 0.5
5,C4U C11A C29U A65U,≤ 0.5
6,C4U C11G A37C,≤ 0.5
7,C4U C11G C29U,≤ 0.5
8,C4U C11G C34U,0.551
9,C4U C11G G18C U47A G63A,≤ 0.5
10,C4U C11G G56C,≤ 0.5
11,C4U C11U C34G A40C G51C,0.534
12,C4U C11U G23C A43C C66G,≤ 0.5
13,C4U C11U G23C C31U,≤ 0.5
14,C4U C22G C30U A37G A43U G67A,≤ 0.5
15,C4U C22U C33U A42C A57G,≤ 0.5
16,C4U C22U G68C,≤ 0.5
17,C4U C24A A36C A57U C60A,≤ 0.5
18,C4U C24A C30G C55U,≤ 0.5
19,C4U C24A U47G G58A,≤ 0.5
20,C4U C24G C30G C31U U35A A36U G44A G63C,0.654
21,C4U C24G U26A U28G C66U,≤ 0.5
22,C4U C24U A37G C66U A70C,≤ 0.5
23,C4U C24U A43G A65G,≤ 0.5
24,C4U C24U A43G C60U C61G,≤ 0.5

row,Variant,yeast fitness
1,C4U C24U U54A,≤ 0.5
2,C4U C27A A37U G50A,≤ 0.5
3,C4U C27G C60G A70C,≤ 0.5
4,C4U C29A G52C C55G U59G,0.656
5,C4U C30A G56A U59A,≤ 0.5
6,C4U C30G U53C C60A C61A C66G,≤ 0.5
7,C4U C31U C55A,≤ 0.5
8,C4U C33G A57G,≤ 0.5
9,C4U C33G C49A A69U,≤ 0.5
10,C4U C34G C46U G48C U54G,≤ 0.5
11,C4U C46A G67C,≤ 0.5
12,C4U C46U C62G,≤ 0.5
13,C4U C49A C66U,0.612
14,C4U G6A C34A,≤ 0.5
15,C4U G6C A14U C24G G58C G68C,≤ 0.5
16,C4U G6C A21C C30G C55U C60G,≤ 0.5
17,C4U G6C G9C A37U A57G,≤ 0.5
18,C4U G9A C22G A42U U64A,≤ 0.5
19,C4U G9A C22G A65G,≤ 0.5
20,C4U G9C A20U,≤ 0.5
21,C4U G10A A15C U59C A69G,≤ 0.5
22,C4U G10C A14C C27G G51C,≤ 0.5
23,C4U G10C A14C C27G U53A,≤ 0.5
24,C4U G12A A42U C49U,≤ 0.5

row,Variant,yeast fitness
1,C4U G12A U28A A45U C62G A65G,≤ 0.5
2,C4U G12C U54G,≤ 0.5
3,C4U G23A G56C G68A,≤ 0.5
4,C4U G23C A36G C66U,≤ 0.5
5,C4U G23C G51A A69G,0.586
6,C4U G23U C24G C29U A37G A65G,≤ 0.5
7,C4U G39A G52C C55G,≤ 0.5
8,C4U G39C G56C,≤ 0.5
9,C4U G44C C60U C62G,≤ 0.5
10,C4U G52A U53A C62U,≤ 0.5
11,C4U G63C,0.782
12,C4U U7A A20G G23A U26G,≤ 0.5
13,C4U U7A A57C,≤ 0.5
14,C4U U7A U32C,≤ 0.5
15,C4U U7A U47C C66U,≤ 0.5
16,C4U U7C A15C U16G,≤ 0.5
17,C4U U7C C27G,≤ 0.5
18,C4U U7C G10A A14U C27G A36G G63A,≤ 0.5
19,C4U U7G C11U C61G,≤ 0.5
20,C4U U7G C34G C49A,≤ 0.5
21,C4U U8A C24U C62U G68C A69G,≤ 0.5
22,C4U U8A U13C A57C,≤ 0.5
23,C4U U8A U32G U35A,≤ 0.5
